# From the supplement of paper PMC8728848
# The other results are listed elsewhere or left out.
# Experiments:
# Experiment in all cases: glycan array binding signal (z-score within array); higher = stronger binding
# Details in all cases: glycan notation: IUPAC condensed, linker removed
# [1] = target: Neu5Ac(a2-3)Gal(b1-4)GlcNAc(b1-6)[Gal(b1-3)]GalNAc
# Procedure, shortened: (§1)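 Columns mapping to the same glycan were averaged after glycan names were converted to IUPAC-condensed notation. The data come from 3228 arrays in the Consortium for Functional Glycomics database, limited to those with an available protein sequence. Binding is reported as a within-array Z-score averaged across arrays of one protein sequence and across linkers.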
# [2] = target: Neu5Ac(a2-3)Gal(b1-4)GlcNAc(b1-6)[Neu5Ac(a2-3)Gal(b1-3)]GalNAc
# Procedure, shortened: as §1
# [3] = target: Neu5Ac(a2-3)Gal(b1-4)GlcNAc6S
# Procedure, shortened: as §1
# [4] = target: Neu5Ac(a2-3)Gal(b1-4)[Fuc(a1-3)]GlcNAc
# Procedure, shortened: as §1
# [5] = target: Neu5Ac(a2-3)Gal(b1-4)[Fuc(a1-3)]GlcNAc(b1-2)Man
# Procedure, shortened: as §1
# [6] = target: Neu5Ac(a2-3)Gal(b1-4)[Fuc(a1-3)]GlcNAc(b1-3)Gal
# Procedure, shortened: as §1
# [7] = target: Neu5Ac(a2-3)Gal(b1-4)[Fuc(a1-3)]GlcNAc(b1-3)Gal(b1-4)GlcNAc
# Procedure, shortened: as §1
# [8] = target: Neu5Ac(a2-3)Gal(b1-4)[Fuc(a1-3)]GlcNAc(b1-3)Gal(b1-4)[Fuc(a1-3)]GlcNAc(b1-3)Gal(b1-4)[Fuc(a1-3)]GlcNAc
# Procedure, shortened: as §1
# [9] = target: Neu5Ac(a2-3)Gal(b1-4)[Fuc(a1-3)]GlcNAc(b1-3)GalNAc
# Procedure, shortened: as §1
# [10] = target: Neu5Ac(a2-3)Gal(b1-4)[Fuc(a1-3)]GlcNAc(b1-6)[Gal(b1-3)]GalNAc
# Procedure, shortened: as §1
# [11] = target: Neu5Ac(a2-3)Gal(b1-4)[Fuc(a1-3)]GlcNAc(b1-6)[Neu5Ac(a2-3)Gal(b1-3)]GalNAc
# Procedure, shortened: as §1
# [12] = target: Neu5Ac(a2-3)Gal(b1-4)[Fuc(a1-3)]GlcNAc6S
# Procedure, shortened: as §1
# [13] = target: Neu5Ac(a2-3)Gal6S(b1-4)GlcNAc
# Procedure, shortened: as §1
# [14] = target: Neu5Ac(a2-3)Gal6S(b1-4)[Fuc(a1-3)]GlcNAc
# Procedure, shortened: as §1
# Neu5Ac(a2-3)GalNAc = target: Neu5Ac(a2-3)GalNAc
# Procedure, shortened: as §1
# [15] = target: Neu5Ac(a2-3)GalNAc(b1-4)GlcNAc
# Procedure, shortened: as §1
# [16] = target: Neu5Ac(a2-3)[GalNAc(b1-4)]Gal(b1-4)Glc
# Procedure, shortened: as §1
# [17] = target: Neu5Ac(a2-3)[GalNAc(b1-4)]Gal(b1-4)GlcNAc
# Procedure, shortened: as §1
# [18] = target: Neu5Ac(a2-3)[GalNAc(b1-4)]Gal(b1-4)GlcNAc(b1-3)GalNAc
# Procedure, shortened: as §1
# [19] = target: Neu5Ac(a2-3)[Neu5Ac(a2-6)]GalNAc
# Procedure, shortened: as §1
# Neu5Ac(a2-6)Gal = target: Neu5Ac(a2-6)Gal
# Procedure, shortened: as §1
# [20] = target: Neu5Ac(a2-6)Gal(b1-3)GlcNAc(b1-3)[Gal(b1-4)GlcNAc(b1-6)]Gal(b1-4)Glc
# Procedure, shortened: as §1
# Neu5Ac(a2-6)Gal(b1-4)Glc = target: Neu5Ac(a2-6)Gal(b1-4)Glc
# Procedure, shortened: as §1
# [21] = target: Neu5Ac(a2-6)Gal(b1-4)GlcNAc
# Procedure, shortened: as §1
# [22] = target: Neu5Ac(a2-6)Gal(b1-4)GlcNAc(b1-2)Man
# Procedure, shortened: as §1
# [23] = target: Neu5Ac(a2-6)Gal(b1-4)GlcNAc(b1-2)Man(a1-3)Man(b1-4)GlcNAc(b1-4)GlcNAc
# Procedure, shortened: as §1
# [24] = target: Neu5Ac(a2-6)Gal(b1-4)GlcNAc(b1-2)Man(a1-3)[Gal(b1-4)GlcNAc(b1-2)Man(a1-6)]Man(b1-4)GlcNAc(b1-4)GlcNAc
# Procedure, shortened: as §1
# [25] = target: Neu5Ac(a2-6)Gal(b1-4)GlcNAc(b1-2)Man(a1-3)[GlcNAc(b1-2)Man(a1-6)]Man(b1-4)GlcNAc(b1-4)GlcNAc
# Procedure, shortened: as §1
# [26] = target: Neu5Ac(a2-6)Gal(b1-4)GlcNAc(b1-2)Man(a1-3)[GlcNAc(b1-4)][Neu5Ac(a2-6)Gal(b1-4)GlcNAc(b1-2)Man(a1-6)]Man(b1-4)GlcNAc(b1-4)GlcNAc
# Procedure, shortened: as §1
# [27] = target: Neu5Ac(a2-6)Gal(b1-4)GlcNAc(b1-2)Man(a1-3)[Man(a1-6)]Man(b1-4)GlcNAc(b1-4)GlcNAc
# Procedure, shortened: as §1
# [28] = target: Neu5Ac(a2-6)Gal(b1-4)GlcNAc(b1-2)Man(a1-3)[Neu5Ac(a2-3)Gal(b1-4)GlcNAc(b1-2)Man(a1-6)]Man(b1-4)GlcNAc(b1-4)GlcNAc
# Procedure, shortened: as §1
# [29] = target: Neu5Ac(a2-6)Gal(b1-4)GlcNAc(b1-2)Man(a1-3)[Neu5Ac(a2-6)Gal(b1-4)GlcNAc(b1-2)Man(a1-6)]Man(b1-4)GlcNAc(b1-4)GlcNAc
# Procedure, shortened: as §1
# [30] = target: Neu5Ac(a2-6)Gal(b1-4)GlcNAc(b1-2)Man(a1-3)[Neu5Ac(a2-6)Gal(b1-4)GlcNAc(b1-2)Man(a1-6)]Man(b1-4)GlcNAc(b1-4)[Fuc(a1-6)]GlcNAc
# Procedure, shortened: as §1
# [31] = target: Neu5Ac(a2-6)Gal(b1-4)GlcNAc(b1-2)Man(a1-6)Man(b1-4)GlcNAc(b1-4)GlcNAc
# Procedure, shortened: as §1
# [32] = target: Neu5Ac(a2-6)Gal(b1-4)GlcNAc(b1-2)Man(a1-6)[Gal(b1-4)GlcNAc(b1-2)Man(a1-3)]Man(b1-4)GlcNAc(b1-4)GlcNAc
# Procedure, shortened: as §1
# [33] = target: Neu5Ac(a2-6)Gal(b1-4)GlcNAc(b1-2)Man(a1-6)[GlcNAc(b1-2)Man(a1-3)]Man(b1-4)GlcNAc(b1-4)GlcNAc
# Procedure, shortened: as §1
# [34] = target: Neu5Ac(a2-6)Gal(b1-4)GlcNAc(b1-2)Man(a1-6)[Man(a1-3)]Man(b1-4)GlcNAc(b1-4)GlcNAc
# Procedure, shortened: as §1
# [35] = target: Neu5Ac(a2-6)Gal(b1-4)GlcNAc(b1-2)[Neu5Ac(a2-6)Gal(b1-4)GlcNAc(b1-4)]Man(a1-3)[GlcNAc(b1-4)][Neu5Ac(a2-6)Gal(b1-4)GlcNAc(b1-2)[Neu5Ac(a2-6)Gal(b1-4)GlcNAc(b1-6)]Man(a1-6)]Man(b1-4)GlcNAc(b1-4)GlcNAc
# Procedure, shortened: as §1
# [36] = target: Neu5Ac(a2-6)Gal(b1-4)GlcNAc(b1-2)[Neu5Ac(a2-6)Gal(b1-4)GlcNAc(b1-4)]Man(a1-3)[GlcNAc(b1-4)][Neu5Ac(a2-6)Gal(b1-4)GlcNAc(b1-4)Man(a1-6)]Man(b1-4)GlcNAc(b1-4)GlcNAc
# Procedure, shortened: as §1
# [37] = target: Neu5Ac(a2-6)Gal(b1-4)GlcNAc(b1-2)[Neu5Ac(a2-6)Gal(b1-4)GlcNAc(b1-6)]Man(a1-6)[Neu5Ac(a2-6)Gal(b1-4)GlcNAc(b1-2)Man(a1-3)][GlcNAc(b1-4)]Man(b1-4)GlcNAc(b1-4)GlcNAc
# Procedure, shortened: as §1
# [38] = target: Neu5Ac(a2-6)Gal(b1-4)GlcNAc(b1-3)Gal(b1-3)GlcNAc
# Procedure, shortened: as §1
# [39] = target: Neu5Ac(a2-6)Gal(b1-4)GlcNAc(b1-3)Gal(b1-4)GlcNAc
# Procedure, shortened: as §1
# [40] = target: Neu5Ac(a2-6)Gal(b1-4)GlcNAc(b1-3)Gal(b1-4)GlcNAc(b1-2)Man(a1-3)[Neu5Ac(a2-6)Gal(b1-4)GlcNAc(b1-3)Gal(b1-4)GlcNAc(b1-2)Man(a1-6)]GalNAc
# Procedure, shortened: as §1
# [41] = target: Neu5Ac(a2-6)Gal(b1-4)GlcNAc(b1-3)Gal(b1-4)GlcNAc(b1-3)Gal(b1-4)GlcNAc
# Procedure, shortened: as §1
# [42] = target: Neu5Ac(a2-6)Gal(b1-4)GlcNAc(b1-3)Gal(b1-4)GlcNAc(b1-3)Gal(b1-4)GlcNAc(b1-2)Man(a1-3)[Neu5Ac(a2-6)Gal(b1-4)GlcNAc(b1-3)Gal(b1-4)GlcNAc(b1-3)Gal(b1-4)GlcNAc(b1-2)Man(a1-6)]GalNAc
# Procedure, shortened: as §1
binder,measurement,setting,value
Pbx1CASH domain (Cryptococcus neoformans) (protein) MDETKPLWGNPRADGISLACKDSIVERNVVYDATDGAIVLFGSAGSTVKNNHVYARTRVILGGINLVDYEPWDGDYTNVKVHHNHLYALGRYFKVGIVIGPASWSDDTESVVHSASVTDNEFSGGYWGYGIVVASAKNFEVLRNKVIWDGEQGVARFSGVPGS,glycan array binding signal (z-score),[1],-0.539
same,glycan array binding signal (z-score),[2],0.825
same,glycan array binding signal (z-score),[3],-0.985
same,glycan array binding signal (z-score),[4],-1.03
same,glycan array binding signal (z-score),[5],0.83
same,glycan array binding signal (z-score),[6],-0.746
same,glycan array binding signal (z-score),[7],-0.436
same,glycan array binding signal (z-score),[8],-0.748
same,glycan array binding signal (z-score),[9],0.771
same,glycan array binding signal (z-score),[10],-0.356
same,glycan array binding signal (z-score),[11],-0.516
same,glycan array binding signal (z-score),[12],-0.751
same,glycan array binding signal (z-score),[13],-0.331
same,glycan array binding signal (z-score),[14],-0.838
same,glycan array binding signal (z-score),Neu5Ac(a2-3)GalNAc,-0.804
same,glycan array binding signal (z-score),[15],-0.34
same,glycan array binding signal (z-score),[16],-0.534
same,glycan array binding signal (z-score),[17],-0.754
same,glycan array binding signal (z-score),[18],1.22
same,glycan array binding signal (z-score),[19],-0.817
same,glycan array binding signal (z-score),Neu5Ac(a2-6)Gal,-1.04
same,glycan array binding signal (z-score),[20],0.736
same,glycan array binding signal (z-score),Neu5Ac(a2-6)Gal(b1-4)Glc,-0.412
same,glycan array binding signal (z-score),[21],-0.348
same,glycan array binding signal (z-score),[22],0.138
same,glycan array binding signal (z-score),[23],-0.856
same,glycan array binding signal (z-score),[24],0.565
same,glycan array binding signal (z-score),[25],0.38
same,glycan array binding signal (z-score),[26],1.33
same,glycan array binding signal (z-score),[27],-0.637
same,glycan array binding signal (z-score),[28],-0.338
same,glycan array binding signal (z-score),[29],-0.106
same,glycan array binding signal (z-score),[30],-0.909
same,glycan array binding signal (z-score),[31],-0.857
same,glycan array binding signal (z-score),[32],-0.843
same,glycan array binding signal (z-score),[33],0.135
same,glycan array binding signal (z-score),[34],-0.67
same,glycan array binding signal (z-score),[35],0.958
same,glycan array binding signal (z-score),[36],1.5
same,glycan array binding signal (z-score),[37],1.46
same,glycan array binding signal (z-score),[38],0.16
same,glycan array binding signal (z-score),[39],-0.334
same,glycan array binding signal (z-score),[40],1.6
same,glycan array binding signal (z-score),[41],-0.247
same,glycan array binding signal (z-score),[42],3.13

# Rewritten tab-delimited: entries from further up
binder	measurement	setting	value
Pbx1CASH domain (Cryptococcus neoformans) (protein) MDETKPLWGNPRADGISLACKDSIVERNVVYDATDGAIVLFGSAGSTVKNNHVYARTRVILGGINLVDYEPWDGDYTNVKVHHNHLYALGRYFKVGIVIGPASWSDDTESVVHSASVTDNEFSGGYWGYGIVVASAKNFEVLRNKVIWDGEQGVARFSGVPGS	glycan array binding signal (z-score)	[4]	-1.03
same	glycan array binding signal (z-score)	[5]	0.83
same	glycan array binding signal (z-score)	[6]	-0.746
same	glycan array binding signal (z-score)	[7]	-0.436
same	glycan array binding signal (z-score)	[8]	-0.748
same	glycan array binding signal (z-score)	[9]	0.771
same	glycan array binding signal (z-score)	[10]	-0.356
same	glycan array binding signal (z-score)	[11]	-0.516
same	glycan array binding signal (z-score)	[12]	-0.751
same	glycan array binding signal (z-score)	[13]	-0.331
same	glycan array binding signal (z-score)	[14]	-0.838
same	glycan array binding signal (z-score)	Neu5Ac(a2-3)GalNAc	-0.804
